The target in the test is mDelFC (mouse Delphilin FH2 domain through to the C-terminus) (mouse) (UniProt Q0QWG9). In words: SEC. (SEC sorts molecules by how far they enter the pores of the column.)

By UniProt entry, the sequences of proteins in these tests, tags left out. Residues count along the entry.
UniProt Q0QWG9, 805-1203: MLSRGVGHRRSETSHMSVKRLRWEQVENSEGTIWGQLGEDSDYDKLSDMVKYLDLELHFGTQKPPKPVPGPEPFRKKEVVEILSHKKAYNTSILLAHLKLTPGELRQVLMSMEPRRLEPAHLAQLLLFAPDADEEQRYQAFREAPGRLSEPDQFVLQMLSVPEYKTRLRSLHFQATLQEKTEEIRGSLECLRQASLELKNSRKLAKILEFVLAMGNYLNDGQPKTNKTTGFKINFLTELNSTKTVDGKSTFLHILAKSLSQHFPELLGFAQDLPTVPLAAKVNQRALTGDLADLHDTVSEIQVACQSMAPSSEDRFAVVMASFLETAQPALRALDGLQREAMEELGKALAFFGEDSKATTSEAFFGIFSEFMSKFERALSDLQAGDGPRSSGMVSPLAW

These are yes or no findings as the source states them, for the method shown.

For the substance “α-mDelNT (N-terminal half of mouse α-Delphilin) (from UniProt Q0QWG9-2 1-558) (domain or fragment)”, the binding result is recorded as “no binding”.

The values are drawn from article doi:10.1101/151191.
